The shares of active, inactive and inconclusive entries below differ from those in the screen. The source made the active and inactive calls.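 Rule for the calls: active = fitted drop in cell viability signal with half-maximal potency at most twice the top valid dose; inconclusive = flat fit with a 30 to 70% drop, or poor fit; inactive = opposite direction, flat within 30%, or potency beyond limit.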
Experiment: HEK293 cell cytotoxicity, dose response, cytotoxicity control, ATP luminescence, dry powder, Set3, 50 µM top (AID 743135)
Settings: HEK293T viability, CellTiter-Glo ATP luminescence, 72 h; at 50 µM (top of the series)

**Q.** For `Cc1c(C(=O)O)sc2nc(/C=C/C=C/c3ccccc3)[nH]c(=O)c12`, which activity change, negative = cytotoxicity is on record?
**A.** The activity change, negative = cytotoxicity was inactive: -4.1%.

**Q.** For `Cc1c(C(=O)O)sc2nc(/C=C/c3ccncc3)[nH]c(=O)c12`, which activity change, negative = cytotoxicity is on record?
**A.** Its activity change, negative = cytotoxicity is inconclusive: 27.8%.
